Source: PubChem BioAssay AID652259 (Drosophila RNAi Screening Center, 2013)

Assay: 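Identify new Wingless signalling regulators in fly cells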 (primary screen)
Cells: Drosophila clone 8 imaginal disc epithelial cells
Reagent: long dsRNA against Drosophila genes
Conditions: pathway stimulated by co-transfected Wingless expression plasmid
Measured: 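Dual luciferase reads per well after Wingless plasmid stimulation: reporter firefly light and Renilla control light; activity is firefly divided by Renilla, a ratio not deposited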
Scale: firefly reporter light: higher = more Wg reporter light, before normalisation; Renilla control light: higher = more transfected or surviving cells
Call rule: 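a knock-down is a candidate when at least two out of four statistical tests show it departing from its plate mean; one test alone signals a weak candidate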
Meaning of the calls: active = candidate regulator (raises or lowers reporter); inactive = not a candidate
In all, the deposit lists about 22,000 reagents; shown is an unselected part of those with a known target gene and a result. Over the whole deposit, 233 (1.1%) got an active call. 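Light values are raw, unnormalised plate reads; the ratio scores behind the reporter calls were not deposited.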 Entries without a mark were called inactive. Reagents against one gene are numbered here. Names joined by + are all predicted targets of the reagent. Reagent sequences are not shown. The record does not give: the amount of reagent, the time to read-out, the dose of the treatment.

Gene	reagent	reporter change call, replicate 1	firefly reporter light, replicate 1	firefly reporter light, replicate 2	Renilla control light, replicate 1	Renilla control light, replicate 2
Nemp	1		2289	5106	1049	1387
TrpRS-m	1		3930		1445	
CG5555	1		1756	6230	520	2630
Ssk	1		4295		1856	
nAChRalpha3	1		19365		9637	
CG31221	1		14323		3699	
CG31221	2		17323		3643	
S-Lap2	1		1737	8603	1211	3766
VepD	1		4.81e5	3.90e5	2.06e5	1.96e5
CG31100	1		13089		3606	
CG31100	2		16753		4185	
Or46a + asRNA:CR43467	1		4176	11140	1627	3552
Or46a + asRNA:CR43467	2		4311	4355	1180	2465
Or46a + asRNA:CR43467	3		5.97e5	5.41e5	2.59e5	1.71e5
CG16989	1		28714		18133	
CG13949	1		3184	11426	1530	4587
CG18764	1		17922		3761	
Ser7	1		1765	4563	912	1575
CG14174	1		4121		1883	
Ih	1		31752		26404	
Ih	2		13269		3665	
Ih	3		6.39e5	7.28e5	2.93e5	2.91e5
CG42264	1		19781		9481	
CG42264	2		18026		10468	
hbn	1		2129	4836	171	386
hbn	2		4450	8968	1020	4225
hbn	3		4327	9256	762	2135
hbn	4		3.06e5	2.88e5	1.43e5	1.15e5
CG9427	1		8134		2981	
CecA1	1		7564		3056	
yellow-d2	1		2752	4488	656	2001
CG7896	1		1547	4908	714	1158
Eip74EF	1	Wg reporter activity raised (active)	5479		428	
Eip74EF	2		5062		1873	
CG7634	1		16657		4352	
arr	1	Wg reporter activity lowered (active)	1408		3172	
Npc2f	1		2311	7653	1296	1949
CG3339	1		3125		1436	
CG3339	2		5947		3767	
CG3557	1		12560		4747	
Or33c	1		1957	5143	944	2867
CG10874	1		2988	7824	1158	2397
Pbgs	1		5732		2104	
CG15403	1		3661	8160	1027	3450
Art2	1		2885	10016	768	2085
Ccdc39	1		9968		4108	
Nuf2	1		10896		3554	
CG7900	1		27808		8441	
CG7900	2		4.76e5	4.74e5	2.02e5	1.82e5
CG43341	1		17650		8656	
Mur82C	1		2600		902	
Mur82C	2		25222	7.59e5	7016	2.82e5
cup	1		5994		2409	
CG31928	1		12364		5821	
Ref1	1		10117		3699	
Ref1	2		5.69e5	6.71e5	2.05e5	2.23e5
E(z)	1		6690		2666	
Polr2M	1		18443		3387	
Snx3	1		16913		4986	

Ordered by “firefly reporter light, replicate 1” (ascending): 6 of the entries above.
Gene	reagent	reporter change call, replicate 1	firefly reporter light, replicate 1	firefly reporter light, replicate 2	Renilla control light, replicate 1	Renilla control light, replicate 2
arr	1	Wg reporter activity lowered (active)	1408		3172	
Npc2f	1		2311	7653	1296	1949
CG3339	1		3125		1436	
CG3339	2		5947		3767	
CG3557	1		12560		4747	
CG7634	1		16657		4352	

The list goes on:
Gene	reagent	reporter change call, replicate 1	firefly reporter light, replicate 1	firefly reporter light, replicate 2	Renilla control light, replicate 1	Renilla control light, replicate 2
CG9737	1		8064		3130	
ZnT35C	1		1824	4076	755	2000
CG42697	1		18957		12376	
Jon25Bi	1		2301	6689	812	1778
5-HT2A	1		4832		1936	
OdsH	1		27014		12745	
CG1785	1		2660	4212	1170	1744
His3.3B	1		23308		16864	
His3.3B	2		17792		6160	
Gp210	1		2339	7530	903	2680
Gp210	2		14230		4955	
E(spl)m4-BFM	1		19586		14192	
CG14229	1		27160		4517	
Rassf	1		2396	5161	1408	2153
CG7443	1		15856		4296	
CG18641	1		2071	7715	898	2744
CG3565	1		13712		3893	
TwdlN	1		8068		3249	
Cyp12e1	1		10008		2421	
CG15431	1		2882	4519	851	1981
CG31189	1		14448		3288	
l(2)37Bb	1		3011	11088	843	4148
Adss	1		2185	5488	1209	1619
CG18268 + CG3014	1		14025		3974	
CG10859	1		5985		2032	
CG34327	1		21088		11139	
CG34327	2		7.61e5	8.97e5	3.68e5	3.60e5
CG17107	1		2939	9744	1482	4107
CG17107	2		4.19e5	4.46e5	1.41e5	1.35e5
Cdk9	1		2505	5333	545	2050
Psn	1		11813		4644	
Nek2	1		3992	10252	1785	3469
CG8176	1		14867		3268	
CG15880	1		2964	6300	1196	2332
